We go through 1 compound from PubChem BioAssay AID652104 (National Center for Advancing Translational Sciences (NCATS), 2013).

The hits were mostly taken out for another list; the other results follow. Inconclusive results are not listed. Calls of active or inactive are those of the source. Calls come from the whole dose curve; as a rule, active = well fitted activation curve with a large enough effect; inconclusive = small, poorly fitted or top-dose-only effect, or another doubt; inactive = no such curve, though single readings can be large or run the other way.

The nature of the test: qHTS of TDP-43 Inhibitors. Note: % of control where 0% means no effect; nearly all actives have a fitted effect of over 50% in size. The settings on record: TDP-43 expressing yeast growth rescue, BacTiter-Glo, 24 h; at 46.1 µM (top of the series). An excerpt: The goal of this project is to identify new chemical probes capable of reversing the toxicity associated with TDP-43 which is associated with frontotemporal lobar degeneration and amyotrophic lateral sclerosis. These compounds will provide a complementary approach to deciphering the tangled mechanisms of toxicity and protection that we have uncovered through genome-wide genetic screens and are beginning to uncover in a large-scale proteomics analysis with mass spectroscopy.
To this end, a miniaturized assay was developed to be screened against the Molecular Libraries Small Molecule Repository (MLSMR) to discover TDP-43 inhibitors. Please note that in the set-up this yeast-based assay compounds that inhibit as TDP-43, have a read-out as activators.
NIH Chemical Genomics Center [NCGC]
NIH Molecular Libraries Probe Centers Network [MLPCN]
Assay Submitter (PI): Susan Lindquist, Whitehead Institute/MIT
Dispense 2.5 microL yeast galactose medium per 1536-well plate, pin compound, dispense 2.5 microL TDP-43 expressing yeast in galactose medium at OD600=0.02 (pregrown in raffinose medium to mid-log phase) per well, incubate for 24 hr at 30 deg C, and cell growth will be measured using 5 microL of Bactiter/Glo reagent to entire plate and read using Luminescence Protocol in ViewLux.
Consider `CCCCCCCCc1ccc(O)cc1`, for which the growth rescue (activation) is inactive: -90.8%.
